This passage reports binding results from PMC11165011.

The chains behind the UniProt entries cited, without tags or fusion partners.
UniProt P40763: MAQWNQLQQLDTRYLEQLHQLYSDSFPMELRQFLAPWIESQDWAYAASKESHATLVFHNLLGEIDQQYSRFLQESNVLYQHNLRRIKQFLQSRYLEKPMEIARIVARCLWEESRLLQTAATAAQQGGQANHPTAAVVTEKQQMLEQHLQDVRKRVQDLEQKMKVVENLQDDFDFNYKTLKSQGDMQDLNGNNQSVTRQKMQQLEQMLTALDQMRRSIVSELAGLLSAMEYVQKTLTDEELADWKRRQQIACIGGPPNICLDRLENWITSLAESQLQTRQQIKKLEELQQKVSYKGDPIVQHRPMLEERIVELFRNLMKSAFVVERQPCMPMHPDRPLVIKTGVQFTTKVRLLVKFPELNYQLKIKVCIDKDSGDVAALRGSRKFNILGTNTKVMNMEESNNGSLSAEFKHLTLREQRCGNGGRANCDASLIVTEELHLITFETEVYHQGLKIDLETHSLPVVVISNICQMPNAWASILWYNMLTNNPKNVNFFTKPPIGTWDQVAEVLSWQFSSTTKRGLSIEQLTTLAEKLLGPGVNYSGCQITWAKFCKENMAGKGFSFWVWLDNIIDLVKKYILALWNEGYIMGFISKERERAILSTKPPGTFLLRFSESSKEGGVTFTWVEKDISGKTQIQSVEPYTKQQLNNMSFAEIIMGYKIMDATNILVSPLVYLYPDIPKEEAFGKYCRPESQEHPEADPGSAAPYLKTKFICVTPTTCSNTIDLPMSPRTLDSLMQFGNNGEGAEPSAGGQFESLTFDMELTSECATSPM

No constants are given. Whether binding was seen depends on the method and setting. Binding seen in cells or lysates may run through a third protein. These calls come from enrichment with a bait or labelling near it, and not all partners need be listed. Tags and fused reporters may be left off the sequences shown.

This test has as its target T1, HA-tagged PRTN3 (Proteinase 3), full length (human) (UniProt P24158).
T1 sequence: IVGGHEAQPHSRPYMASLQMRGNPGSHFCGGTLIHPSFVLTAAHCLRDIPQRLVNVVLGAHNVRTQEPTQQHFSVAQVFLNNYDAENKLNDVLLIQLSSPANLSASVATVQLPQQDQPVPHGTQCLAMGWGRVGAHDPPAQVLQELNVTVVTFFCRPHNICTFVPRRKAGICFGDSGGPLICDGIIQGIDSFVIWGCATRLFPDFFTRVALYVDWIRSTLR
Put plainly: affinity purification with mass spectrometry; HEK293T cells transfected with HA-PRTN3; lysate precipitated with anti-HA overnight at 4 °C and protein A/G beads; RPLC/MS (TripleTOF 6600).

On to “STAT3, endogenous in HEK293T cells (from UniProt P40763 1-770)”, for which the binding result is recorded as “binds”.
